Binding data for 2 substances are collected here from patent publication US20140220596A1 (MEDICINAL BIOCONVERGENCE RESEARCH CENTER, published 2014).

No constants are given. Whether binding was seen depends on the method and setting. Binding calls can cover weak binding; strength is not graded here. For some assays here: Sequences can lack the tags named with a protein.

Assay [1] concerns the target T1, Fc-fused soluble cadherin-6 (extracellular domain of CDH6 fused to the Fc fragment of human IgG1) (human) (UniProt P55285).
T1 sequence: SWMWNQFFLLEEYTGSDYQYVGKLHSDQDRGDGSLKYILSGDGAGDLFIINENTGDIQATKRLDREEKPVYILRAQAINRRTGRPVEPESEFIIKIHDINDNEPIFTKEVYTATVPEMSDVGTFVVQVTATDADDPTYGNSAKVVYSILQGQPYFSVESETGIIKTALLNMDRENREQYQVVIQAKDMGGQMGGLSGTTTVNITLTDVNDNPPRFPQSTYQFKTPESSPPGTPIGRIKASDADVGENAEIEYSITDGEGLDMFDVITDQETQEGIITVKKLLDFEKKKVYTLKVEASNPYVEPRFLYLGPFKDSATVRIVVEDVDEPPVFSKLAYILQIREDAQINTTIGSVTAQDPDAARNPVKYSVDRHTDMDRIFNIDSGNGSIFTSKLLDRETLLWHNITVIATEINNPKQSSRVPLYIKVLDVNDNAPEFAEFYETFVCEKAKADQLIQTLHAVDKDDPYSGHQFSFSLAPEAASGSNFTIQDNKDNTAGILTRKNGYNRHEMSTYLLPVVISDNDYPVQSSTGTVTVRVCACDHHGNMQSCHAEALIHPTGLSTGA
The experiment in a line: ELISA, His-GRS coated on the plate, Fc-cadherin added, anti-human IgG1 Fc-HRP detection.

In assay [2] the target is T1, Fc-fused soluble cadherin-6 (extracellular domain of CDH6 fused to the Fc fragment of human IgG1) (human). The experiment in a line: pull-down of Fc-cadherin with protein A/G agarose, immunoblot with anti-GRS. (In western blotting, separated proteins are transferred to a membrane and probed.)
The target of assay [3] is T2, cadherin-6 (CDH6), endogenous in cancer cell lines (HCT116, SN12, Caki-1) (human) (UniProt P55285).
T2 sequence (looked up): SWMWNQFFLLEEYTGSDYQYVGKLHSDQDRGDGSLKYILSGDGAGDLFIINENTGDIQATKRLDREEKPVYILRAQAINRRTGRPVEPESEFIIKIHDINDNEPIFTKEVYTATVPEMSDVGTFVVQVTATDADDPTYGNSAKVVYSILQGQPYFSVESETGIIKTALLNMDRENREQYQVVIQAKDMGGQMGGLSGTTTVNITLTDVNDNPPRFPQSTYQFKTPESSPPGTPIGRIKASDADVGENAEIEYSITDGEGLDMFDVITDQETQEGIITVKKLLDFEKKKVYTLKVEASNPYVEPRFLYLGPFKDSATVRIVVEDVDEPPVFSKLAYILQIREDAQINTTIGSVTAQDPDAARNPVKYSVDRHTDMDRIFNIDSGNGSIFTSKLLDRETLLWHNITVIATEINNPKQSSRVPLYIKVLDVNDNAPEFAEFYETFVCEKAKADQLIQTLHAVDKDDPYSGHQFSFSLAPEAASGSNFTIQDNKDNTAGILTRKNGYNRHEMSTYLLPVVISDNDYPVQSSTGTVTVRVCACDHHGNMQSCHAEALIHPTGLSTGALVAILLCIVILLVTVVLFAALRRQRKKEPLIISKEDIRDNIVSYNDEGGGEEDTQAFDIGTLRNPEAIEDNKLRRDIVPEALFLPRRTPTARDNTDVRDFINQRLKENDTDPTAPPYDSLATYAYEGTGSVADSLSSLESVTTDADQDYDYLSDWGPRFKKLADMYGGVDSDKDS
The experiment in a line: cell binding: SN12 cells incubated with biotin-GRS, lysate blotted with streptavidin-HRP; the filing ties the binding to CDH6 by comparison with RENCA cells, which show no CDH6 band (Fig. 7C).

For assay [4], the target named is T2, cadherin-6 (CDH6), endogenous in cancer cell lines (HCT116, SN12, Caki-1) (human). The experiment in a line: biotin-GRS on SN12 cells, detected with streptavidin-HRP.
Assay [5] has the same target. Put plainly: biotinylated GRS on HCT116 cells with or without si-CDH6, western blot and flow cytometry.

“His-tagged recombinant human glycyl-tRNA synthetase (GRS), 685 amino acids (enzyme)”: the binding entry in assay [1] and in assay [2] was “binds” each time.
As to “biotinylated recombinant human GRS (enzyme)”, the binding result in assay [3], in assay [4] and in assay [5] was “binds” throughout.
